{"sequences": {"note": "By UniProt entry, the sequences of proteins in these tests, tags left out.", "UniProt Q0JBA9, entry or part of it": "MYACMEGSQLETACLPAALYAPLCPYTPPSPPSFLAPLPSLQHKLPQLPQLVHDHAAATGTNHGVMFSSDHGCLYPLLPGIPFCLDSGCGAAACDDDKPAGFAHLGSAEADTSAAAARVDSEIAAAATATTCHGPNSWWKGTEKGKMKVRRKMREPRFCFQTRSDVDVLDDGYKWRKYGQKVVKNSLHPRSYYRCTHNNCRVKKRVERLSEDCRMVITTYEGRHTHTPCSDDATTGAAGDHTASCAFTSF"}, "source": "paper PMC7819943", "about": "“Rice protein-binding microarrays: a tool to detect cis-acting elements near promoter regions in rice”", "note": "Some of the results follow."}
{"molecular_target": "OsWRKY34 (Oryza sativa, UniProt Q0JBA9 1-250)", "experiment": "protein-binding microarray (RPBM); PBS, 2% BSA, 51.3 ng/ul salmon testes DNA, 50 uM zinc acetate, 200 nM TF, 25 C, 1 h; high values mean tight binding", "settings": "protein: recombinant; tags: N-terminal polyhistidine and DsRed monomer fusion (pET32a); label: CyDye5-dUTP incorporated in the synthesized complementary strand; 3' TTTTT single-stranded linker to array surface; dsDNA, one strand shown", "outline": "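Polyhistidine-tagged DsRed fusions of transcription factors, joined at the N-terminus, were expressed in E. coli BL21-CodonPlus and isolated on Ni–NTA. They were incubated at 200 nM for 1 h at 25 °C on a custom Agilent array, double-stranded and BSA-blocked, in PBS with 2% BSA, salmon testes DNA and 50 µM zinc acetate. The binding signal is per-feature fluorescence intensity (arbitrary units) read on an Axon 4000B scanner after washing.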"}
{"sequence": "GTATTATTGTCCCTTACATTGCTAACTCAATGTTGTATTACGGAGTCACCTAGTGCAG", "binding signal": "8130 fluorescence intensity (a.u.)"}
{"sequence": "CCCAGCACACTGCCAGCCAGCCAGCCACTCATCAATCACTCGGAGTCACCTAGTGCAG", "binding signal": "8160 fluorescence intensity (a.u.)"}
{"sequence": "AACAGACACACACCACCACCACTCTCTTCTCTACTACACTCGGAGTCACCTAGTGCAG", "binding signal": "11200 fluorescence intensity (a.u.)"}
{"sequence": "CCCACACACACTTCCAAGCTAGCCGTCTCCAACAACCCTCCGGAGTCACCTAGTGCAG", "binding signal": "9570 fluorescence intensity (a.u.)"}
{"sequence": "CGCGCCGCCCGCCGTCCCCATGCCACCGCGCTGCCCGCCGCGGAGTCACCTAGTGCAG", "binding signal": "10200 fluorescence intensity (a.u.)"}
{"sequence": "CTCCACCTTATCATCATCACCACCACTAACAACAACGCCACGGAGTCACCTAGTGCAG", "binding signal": "8320 fluorescence intensity (a.u.)"}
{"sequence": "TGTGTTATGACTTATGAGGCCTTTCTTTAATGGTAGAATGCGGAGTCACCTAGTGCAG", "binding signal": "8370 fluorescence intensity (a.u.)"}
{"sequence": "ATATTTTGCGTTTTGAATGAATTTTGGTTACTTGTTGGAGCGGAGTCACCTAGTGCAG", "binding signal": "8192 fluorescence intensity (a.u.)"}
{"sequence": "GCGTCTACGTGGCTTGTTTGACTAGATCTTCGTTCCACGTCGGAGTCACCTAGTGCAG", "binding signal": "8320 fluorescence intensity (a.u.)"}
{"sequence": "TCTTCGTTGTCTCCCTCGCTATCACTGTCATATTCCCATCCGGAGTCACCTAGTGCAG", "binding signal": "8330 fluorescence intensity (a.u.)"}
{"sequence": "TAATGTACATTTCCTCTCCGCCGGCCACCAGTCTTCTCCCCGGAGTCACCTAGTGCAG", "binding signal": "8640 fluorescence intensity (a.u.)"}
{"sequence": "ATCCTGTTCTATATTCGTTTCGTTTTTTATAGGAACTACTCGGAGTCACCTAGTGCAG", "binding signal": "9010 fluorescence intensity (a.u.)"}
{"sequence": "CCCCACAACCCCGCATCGTCATCACCACCACCACTCCTCGCGGAGTCACCTAGTGCAG", "binding signal": "8480 fluorescence intensity (a.u.)"}
{"sequence": "TATGATCCATATGCTACTGAACTCGTTATCTTGTGTCTAGCGGAGTCACCTAGTGCAG", "binding signal": "8370 fluorescence intensity (a.u.)"}
{"sequence": "CCCTTCCTACCCCACCTCGCCGTCGCCGCGCGCTCCACCCCGGAGTCACCTAGTGCAG", "binding signal": "8110 fluorescence intensity (a.u.)"}
{"sequence": "TTGTCGTACTCCAGTACTCCACTATCGCTGCCACGACCATCGGAGTCACCTAGTGCAG", "binding signal": "8290 fluorescence intensity (a.u.)"}
{"sequence": "ATATATAGTGGGTGGTCTAATTAATTAAGCTAATTCTAAGCGGAGTCACCTAGTGCAG", "binding signal": "8630 fluorescence intensity (a.u.)"}
{"sequence": "TGCTGCCCGAGGCCCACACTGAATTCCTCCCTCACTTTCCCGGAGTCACCTAGTGCAG", "binding signal": "10700 fluorescence intensity (a.u.)"}
{"sequence": "TCTCAATTCTTGCTTACTTGCGCTGTTGATTCATATGGCTCGGAGTCACCTAGTGCAG", "binding signal": "8690 fluorescence intensity (a.u.)"}
{"sequence": "ACCTCGCCCGCCGTCTCGCTCGCTGTCTCGTCGCCCTCACCGGAGTCACCTAGTGCAG", "binding signal": "12600 fluorescence intensity (a.u.)"}
{"sequence": "ATCCAACTGGCTTTTGCCGGTTCTTTTGGCCCTTGCACACCGGAGTCACCTAGTGCAG", "binding signal": "11300 fluorescence intensity (a.u.)"}
{"sequence": "CTGTCTCACTCACAAATCACACATCTTCCTACCTCTCTCCCGGAGTCACCTAGTGCAG", "binding signal": "9770 fluorescence intensity (a.u.)"}
{"sequence": "AATCTTCCCCTAACTTTGCTAATTATTCACTGGCCTTTTCCGGAGTCACCTAGTGCAG", "binding signal": "10000 fluorescence intensity (a.u.)"}
